Laboratory results as given in US10292395B2, “3H-pyrrolopyridine compound, N-oxide thereof or salt thereof, agricultural and horticultural insecticide comprising the compound and method for using the same” (Nihon Nohyaku Co., Ltd., priority 2015, dated 2019).
Some results were stated once for a whole list of compounds, not compound by compound.

System: Myzus persicae
Experiment: Test of control effect on Myzus persicae (foliar application to potted Chinese cabbage)
Format: in vivo
Details: 500 ppm, Chinese cabbage plants, 6 days after application

| SMILES | control effect (control rate), activity level |
| --- | --- |
| CCS(=O)(=O)c1cc(C(F)(F)F)ccc1C1=Nc2cc(C(F)(F)F)cnc2C1(F)F [Compound 1-1] | A (the control rate is 100%) |
| CC[S+]([O-])c1cc(C(F)(F)F)cnc1C1=Nc2cc(C(F)(F)F)cnc2C1(F)F (centres unmarked) [Compound 1-9, 2-(3-Ethylsulfinyl-5-trifluoromethylpyridin-2-yl)-3,3-difluoro-6-trifluoromethyl-3H-pyrrolo[3,2-b]pyridine] | A (the control rate is 100%) |
| CCS(=O)(=O)c1cc(C(F)(F)F)cnc1C1=Nc2cc(C(F)(F)F)cnc2C1(F)F [Compound 1-10, 2-(3-Ethylsulfonyl-5-trifluoromethylpyridin-2-yl)-3,3-difluoro-6-trifluoromethyl-3H-pyrrolo[3,2-b]pyridine] | A (the control rate is 100%) |
| CCS(=O)(=O)c1cc(-c2ccc(F)cc2)cnc1C1=Nc2cc(C(F)(F)F)cnc2C1(F)F [Compound 1-19, 2-(3-Ethylsulfonyl-5-(4-fluorophenyl)pyridin-2-yl)-3,3-difluoro-6-trifluoromethyl-3H-pyrrolo[3,2-b]pyridine] | A (the control rate is 100%) |
| CCS(=O)(=O)c1cc(-c2cccc(C(F)(F)F)c2)cnc1C1=Nc2cc(C(F)(F)F)cnc2C1(F)F [Compound 1-20, 2-(3-Ethylsulfonyl-5-(3-trifluoromethylphenyl)pyridin-2-yl)-3,3-difluoro-6-trifluoromethyl-3H-pyrrolo[3,2-b]pyridine] | A (the control rate is 100%) |
